Here are results for 54 sequences from publication PMC7819943, “Rice protein-binding microarrays: a tool to detect cis-acting elements near promoter regions in rice”.

Chains of the proteins cited; added tags and fusions are not shown.
UniProt Q0JBA9, entry or part of it: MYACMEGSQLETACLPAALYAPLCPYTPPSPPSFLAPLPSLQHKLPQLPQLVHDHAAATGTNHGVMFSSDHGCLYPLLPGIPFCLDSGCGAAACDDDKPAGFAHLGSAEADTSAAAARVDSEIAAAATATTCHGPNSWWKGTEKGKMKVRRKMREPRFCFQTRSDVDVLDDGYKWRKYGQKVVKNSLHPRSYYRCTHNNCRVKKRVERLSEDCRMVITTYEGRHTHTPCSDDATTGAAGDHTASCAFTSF

The list shows a part of the results.

The target of the experiment is OsWRKY34 (Oryza sativa, UniProt Q0JBA9 1-250). Nature of the experiment: protein-binding microarray (RPBM); PBS, 2% BSA, 51.3 ng/ul salmon testes DNA, 50 uM zinc acetate, 200 nM TF, 25 C, 1 h; high values mean tight binding. The following applies: protein: recombinant; tags: N-terminal polyhistidine and DsRed monomer fusion (pET32a); label: CyDye5-dUTP incorporated in the synthesized complementary strand; 3' TTTTT single-stranded linker to array surface; dsDNA, one strand shown. An outline of the steps: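 Binding signal here means per-feature fluorescence intensity in arbitrary units. The values were read on an Axon 4000B scanner after a custom Agilent array, double-stranded by primer extension with Cy5-dUTP, was incubated with 200 nM protein at 25 °C for 1 h in PBS with 2% BSA, salmon testes DNA and 50 µM zinc acetate, then washed. The proteins were transcription factors with an N-terminal polyhistidine tag and DsRed, expressed in E. coli BL21-CodonPlus and purified on Ni–NTA.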
For “GCTTAGATTAAATCCTTTTTGTAACTGTACATTTTATATACGGAGTCACCTAGTGCAG”, the binding signal was 10400 fluorescence intensity (a.u.). As for “AATCGCGTATCTGTGCACGTCCGTCTGGCCGAACGACTTCCGGAGTCACCTAGTGCAG”, the binding signal was 8330 fluorescence intensity (a.u.). Next, “TACCAGTAGATGTTTACTCCCTGTTTACAAGTCAATCATACGGAGTCACCTAGTGCAG”: 8210 fluorescence intensity (a.u.); “GGTGGTTAGAGCCAGGGGAGGGAGGGCGGTAGCGGTCGTTCGGAGTCACCTAGTGCAG”: 14300 fluorescence intensity (a.u.). For “GGAAAACTCTCTCGTAACCTTTGTGTTTTTTTTTCTATCTCGGAGTCACCTAGTGCAG” the value was 8330 fluorescence intensity (a.u.). Regarding “GATCACCATCCGCTCATCATACCATCGCCATTTTGCCCGTCGGAGTCACCTAGTGCAG”, the binding signal was 9210 fluorescence intensity (a.u.). Turning to “TCATGGCGCATTTAGGCTTAAAAGATTTGTCTCGCAATTTCGGAGTCACCTAGTGCAG”, the binding signal was 9310 fluorescence intensity (a.u.). As to “ACTGGTGACAAGTACATCACCTTGATTTCTTCTTTTTTTTCGGAGTCACCTAGTGCAG”, the binding signal was 9690 fluorescence intensity (a.u.). For “ATAGCCCTATCATTTCGATTGTTTTTACGCATATAAACTACGGAGTCACCTAGTGCAG” the value was 8100 fluorescence intensity (a.u.); for “CTTCCGCTTCCGCCTACCTCACCTCACCTTAGCTCACACGCGGAGTCACCTAGTGCAG”, 13200 fluorescence intensity (a.u.); for “CCTGATCGGATTTGGTTGGCTGGTGCTCTAGATGATGTACCGGAGTCACCTAGTGCAG”, 8170 fluorescence intensity (a.u.). For “GTTTGGTCATTGACTTCAGCAGGTCTTCTCTCTTTGTCTCCGGAGTCACCTAGTGCAG” the value was 9670 fluorescence intensity (a.u.). In the case of “CACCTACAACCGTATTATCTCATATTTCACATGATCTCCTCGGAGTCACCTAGTGCAG”, the binding signal was 8540 fluorescence intensity (a.u.). Next, “AACGTCTCCACCAAGCTTTGTCGATCACCTCCATGCTTTCCGGAGTCACCTAGTGCAG”: 10200 fluorescence intensity (a.u.). Regarding “TATTTTGTAATCATTTGTTTTATATTTGAATTCCTGTCAGCGGAGTCACCTAGTGCAG”, the binding signal is 8590 fluorescence intensity (a.u.). For “AATCCTTAAAATCATTCAAACCTTTTGTTCACCCACGTTTCGGAGTCACCTAGTGCAG” the value was 8760 fluorescence intensity (a.u.). On to “GGTTTCCGTGTCCAACGTTTGACTGTCCGTCTTATATGAACGGAGTCACCTAGTGCAG”, for which the binding signal is 8590 fluorescence intensity (a.u.). For “TGCTCAACATCCATCTTTCTTTCTTTCTTTTTCTCTTTTTCGGAGTCACCTAGTGCAG” the value was 11300 fluorescence intensity (a.u.). Next, “AAGATTTTTAGTGCATCATCAAACAGTATCGTCTCTAGAACGGAGTCACCTAGTGCAG”: 8350 fluorescence intensity (a.u.); “GTCACCTCTTCTAATATTTCTTATTTTTTAATTCCGAATTCGGAGTCACCTAGTGCAG”: 10200 fluorescence intensity (a.u.); “GATTAATATGTCTCTTCCGCACTACATCCCCACCCACATTCGGAGTCACCTAGTGCAG”: 10700 fluorescence intensity (a.u.).

For the sequence “CCCGTACTACTTATCACATCAGTTCATCTTATCCTCAATTCGGAGTCACCTAGTGCAG”, the binding signal is 10900 fluorescence intensity (a.u.).

As for “CTTCTCTCACCGGCTCTCCGCCATCTTCTCGTCCTGTATGCGGAGTCACCTAGTGCAG”, the binding signal was 15400 fluorescence intensity (a.u.). Next, “TCGCCGGGCTTCTCTACGAGTACCTCGTCATCCCGTCCACCGGAGTCACCTAGTGCAG”: 8870 fluorescence intensity (a.u.); “GTATCTTCTGTATCTGTAGTTTTTCTCTGCAGTTCAGTTTCGGAGTCACCTAGTGCAG”: 8650 fluorescence intensity (a.u.). Turning to “GCGCACTTATTTCCGCCGTTAATCTCTCCGCCCAAAGTTACGGAGTCACCTAGTGCAG”, the binding signal was 9340 fluorescence intensity (a.u.).

For “CCGCGACGACCGACCGACCGGGTCCGACCGCACCACCTCGCGGAGTCACCTAGTGCAG”, the binding signal is 8960 fluorescence intensity (a.u.). Next, “ATTTTTGACGCCGTTGACTTTTTTTAAATATGTTTGACCGCGGAGTCACCTAGTGCAG”: 46900 fluorescence intensity (a.u.); “CCATAAGTCGTCTCTCAGTGTGCAGCAGCAATCCACCATCCGGAGTCACCTAGTGCAG”: 8530 fluorescence intensity (a.u.); “TATCTTTGTCACACTCTACTACTACTAGTCTACTAGCACTCGGAGTCACCTAGTGCAG”: 8320 fluorescence intensity (a.u.). Next, “CCGCCGCCGCCTCACCACCAGCCGAAGTCCACCGCCCACGCGGAGTCACCTAGTGCAG”: 8940 fluorescence intensity (a.u.). For “ATAAGTTTCATGTTATTTTTGGCATCTTTACTTTCTACAACGGAGTCACCTAGTGCAG”, the binding signal was 8960 fluorescence intensity (a.u.).

Take “AGATTTTGCACAGTTTTATGCTCCAACACGGCAAGTTTCCCGGAGTCACCTAGTGCAG”: the binding signal was 8400 fluorescence intensity (a.u.).

Consider “TACTTGCACCACCTTCTTCTTCTTCTCTCTCCCTCACACGCGGAGTCACCTAGTGCAG”, for which the binding signal is 8740 fluorescence intensity (a.u.). For “ATTATGGACGTCTTAATATTGTCTTCCCGGGCTGGATCACCGGAGTCACCTAGTGCAG” the value was 11000 fluorescence intensity (a.u.). For the sequence “CCTCTTCCTCTTTTTACTACTCCATCGAGGCATTCAGCGACGGAGTCACCTAGTGCAG”, the binding signal is 9000 fluorescence intensity (a.u.). For “AACACATTTGAGCAAATTCATCCCTCCTACCTCAAATACTCGGAGTCACCTAGTGCAG”, the binding signal is 9260 fluorescence intensity (a.u.). For “TCCCGTCTCGGCTCCTTGCGCCATCGTCGACAGGGGAGGGCGGAGTCACCTAGTGCAG” the value was 9340 fluorescence intensity (a.u.); for “AGAGAGAGAGGCGTCCATTTCCAGGTGTTTTCAGCTCTGACGGAGTCACCTAGTGCAG”, 8650 fluorescence intensity (a.u.). For “TCACGTGGCCACTCCTCCTCCTCCGCCTCCGCGTTTGTGACGGAGTCACCTAGTGCAG” the value was 8690 fluorescence intensity (a.u.); for “GTATGTGGGTGGTGGTATTTTTTTTATCCTGGTTACGACCCGGAGTCACCTAGTGCAG”, 19700 fluorescence intensity (a.u.); for “ACGCACAGTGTGACAAGCTCTCGCCATCCAAGAATCCCTCCGGAGTCACCTAGTGCAG”, 8770 fluorescence intensity (a.u.).

Turning to “GCGCGCCGCCTCGTTGCTTTTCTCCTGTTTTTTTTTTTTTCGGAGTCACCTAGTGCAG”, the binding signal is 9840 fluorescence intensity (a.u.). “CAACCCTCATATATCCCGTGATCCATTGTTCAGACCTGCCCGGAGTCACCTAGTGCAG”: the binding signal is 8810 fluorescence intensity (a.u.). As for “GGCCATCTGGTTTCCACTTCTCTTACCACCTCAATTCCGCCGGAGTCACCTAGTGCAG”, the binding signal is 10500 fluorescence intensity (a.u.). Next, “ACATTAGCATGTTCTCCAGCATACAGTACAGGATCCTCTACGGAGTCACCTAGTGCAG”: 8730 fluorescence intensity (a.u.). For “GTGAGCTCCGCCTCGATCGATTCCACACCAACCTATTCATCGGAGTCACCTAGTGCAG” the value was 8160 fluorescence intensity (a.u.); for “TGTTGGTTTGACCGATCGTATCGGGGTTGGGCGATATACCCGGAGTCACCTAGTGCAG”, 8260 fluorescence intensity (a.u.). With “GCCACCTCGCCCTGTTCACCGTGCCCGCCAACAACCTCCCCGGAGTCACCTAGTGCAG”, the binding signal is 11000 fluorescence intensity (a.u.). For “TTTCCGGACTGTTTTCATCCCTATCTACTACTGCTCGAGCCGGAGTCACCTAGTGCAG” the value was 8770 fluorescence intensity (a.u.). Regarding “ACTATTTTTCTCTGGTTTCTTTCCTTGATGCGTCTCCTTCCGGAGTCACCTAGTGCAG”, the binding signal was 8450 fluorescence intensity (a.u.). Next, “ACTAGCACCCCGACTTTTTTTTTTCTTTCCTTCGCTTCTTCGGAGTCACCTAGTGCAG”: 8170 fluorescence intensity (a.u.); “AATACGAAAGTGAACCTGTCCTTATATTTTCTAGTAGTATCGGAGTCACCTAGTGCAG”: 8350 fluorescence intensity (a.u.); “CCCAGGTCTCTACGGCCACAACGTAGAATTCTCACCACTACGGAGTCACCTAGTGCAG”: 8400 fluorescence intensity (a.u.).
